Results deposited as PubChem BioAssay AID1224830 (NIAID, 2016).
This is an unselected part of about 18,000 reagents tested. About 2,900 of them (16%) count as active. 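Calls are made per well; low scores hint the gene aids the LPS response, high scores that it dampens it.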 Repeated entries: four replicate wells of each siRNA pool.

Aim: 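Genes whose knock-down alters the TNF-alpha reporter response to LPS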 (primary screen)
Cell system: human THP-1 monocytic leukaemia cells, TNF dual-luciferase reporter clone, PMA-differentiated to macrophage-like cells
Reagents: siRNA pool against human genes, 50 nM
Duration: LPS for 4 h, given about 3 days after siRNA transfection
Conditions: bacterial LPS (TLR4 ligand), 10 ng/ml
Read-out: 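TNF firefly reporter luminescence divided by renilla, normalised to the plate median, then turned into a robust z-score for each replicate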
Reading the numbers: TNF reporter robust z-score: higher = stronger TNF reporter response to LPS
Hit rule: 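a well is active when its z-score exceeds 2.8 or falls below -1.5; control wells carry no call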

| target | PubChem SID | TNF reporter robust z-score | outcome |
| --- | --- | --- | --- |
| PHF12 (PHD finger protein 12) | SID315458524 | -1.39 | inactive |
| PHF12 (PHD finger protein 12) | SID315458524 | -1.77 | active |
| PHF12 (PHD finger protein 12) | SID315458524 | -0.5 | inactive |
| PHF12 (PHD finger protein 12) | SID315458524 | -0.49 | inactive |
| TXNL1 (thioredoxin like 1) | SID315453219 | 0.51 | inactive |
| TXNL1 (thioredoxin like 1) | SID315453219 | 0.96 | inactive |
| TXNL1 (thioredoxin like 1) | SID315453219 | -0.16 | inactive |
| TXNL1 (thioredoxin like 1) | SID315453219 | 0.85 | inactive |
| NAGS (N-acetylglutamate synthase) | SID315462746 | 0.33 | inactive |
| NAGS (N-acetylglutamate synthase) | SID315462746 | 3.03 | active |
| NAGS (N-acetylglutamate synthase) | SID315462746 | 1.9 | inactive |
| EFHC1 (EF-hand domain containing 1) | SID315461219 | -0.81 | inactive |
| EFHC1 (EF-hand domain containing 1) | SID315461219 | -1.1 | inactive |
| EFHC1 (EF-hand domain containing 1) | SID315461219 | -1.02 | inactive |
| EFHC1 (EF-hand domain containing 1) | SID315461219 | -0.08 | inactive |
| LSM2 | SID315458596 | 0.96 | inactive |
| LSM2 | SID315458596 | -0.75 | inactive |
| LSM2 | SID315458596 | -0.08 | inactive |
| LSM2 | SID315458596 | 0.07 | inactive |
| TMEM203 (transmembrane protein 203) | SID315461117 | -1.28 | inactive |
| TMEM203 (transmembrane protein 203) | SID315461117 | -1.51 | active |
| TMEM203 (transmembrane protein 203) | SID315461117 | -1.67 | active |
| TMEM203 (transmembrane protein 203) | SID315461117 | -1.58 | active |
| LYAR (Ly1 antibody reactive) | SID315457740 | -1.2 | inactive |
| LYAR (Ly1 antibody reactive) | SID315457740 | -1.17 | inactive |
| LYAR (Ly1 antibody reactive) | SID315457740 | -1.15 | inactive |
| LYAR (Ly1 antibody reactive) | SID315457740 | -1.05 | inactive |
| H4C11 (H4 clustered histone 11) | SID315452514 | 2.21 | inactive |
| H4C11 (H4 clustered histone 11) | SID315452514 | 3.36 | active |
| H4C11 (H4 clustered histone 11) | SID315452514 | 1.03 | inactive |
| H4C11 (H4 clustered histone 11) | SID315452514 | 2.24 | inactive |
| APOC3 (apolipoprotein C3) | SID315447359 | -0.27 | inactive |
| APOC3 (apolipoprotein C3) | SID315447359 | 0.29 | inactive |
| APOC3 (apolipoprotein C3) | SID315447359 | -0.37 | inactive |
| APOC3 (apolipoprotein C3) | SID315447359 | -0.17 | inactive |
| FYRD1 (FYRN and FYRC domains INO80 complex interactor 1) | SID315460556 | -0.22 | inactive |
| FYRD1 (FYRN and FYRC domains INO80 complex interactor 1) | SID315460556 | 4.15 | active |
| FYRD1 (FYRN and FYRC domains INO80 complex interactor 1) | SID315460556 | 0.74 | inactive |
| FYRD1 (FYRN and FYRC domains INO80 complex interactor 1) | SID315460556 | 0.31 | inactive |
| TFCP2L1 (transcription factor CP2 like 1) | SID315456184 | 0.67 | inactive |
| TFCP2L1 (transcription factor CP2 like 1) | SID315456184 | 1.33 | inactive |
| TFCP2L1 (transcription factor CP2 like 1) | SID315456184 | 2.69 | inactive |
| TFCP2L1 (transcription factor CP2 like 1) | SID315456184 | 1.46 | inactive |
| NES (nestin) | SID315454343 | 0.06 | inactive |
| NES (nestin) | SID315454343 | 0.1 | inactive |
| NES (nestin) | SID315454343 | -0.34 | inactive |
| NES (nestin) | SID315454343 | -0.07 | inactive |
| TBC1D26 (TBC1 domain family member 26) | SID315464279 | -0.05 | inactive |
| TBC1D26 (TBC1 domain family member 26) | SID315464279 | 1.86 | inactive |
| TBC1D26 (TBC1 domain family member 26) | SID315464279 | 0.6 | inactive |
| TBC1D26 (TBC1 domain family member 26) | SID315464279 | 0.56 | inactive |
| RAD23B (RAD23 nucleotide excision repair protein B) | SID315451029 | -0.76 | inactive |
| RAD23B (RAD23 nucleotide excision repair protein B) | SID315451029 | -0.75 | inactive |
| RAD23B (RAD23 nucleotide excision repair protein B) | SID315451029 | -0.84 | inactive |
| RAD23B (RAD23 nucleotide excision repair protein B) | SID315451029 | -1.68 | active |
| S100A7 (S100 calcium binding protein A7) | SID315451274 | -0.19 | inactive |
| S100A7 (S100 calcium binding protein A7) | SID315451274 | -0.02 | inactive |
| S100A7 (S100 calcium binding protein A7) | SID315451274 | -0.05 | inactive |
| S100A7 (S100 calcium binding protein A7) | SID315451274 | -0.04 | inactive |
| VWA3B (von Willebrand factor A domain containing 3B) | SID315463035 | 0.21 | inactive |
| VWA3B (von Willebrand factor A domain containing 3B) | SID315463035 | 0.48 | inactive |
| VWA3B (von Willebrand factor A domain containing 3B) | SID315463035 | 0.69 | inactive |
| VWA3B (von Willebrand factor A domain containing 3B) | SID315463035 | 0.94 | inactive |
| AJM1 (apical junction component 1 homolog) | SID315464578 | -0.9 | inactive |
| AJM1 (apical junction component 1 homolog) | SID315464578 | -0.8 | inactive |
| AJM1 (apical junction component 1 homolog) | SID315464578 | -0.07 | inactive |
| AJM1 (apical junction component 1 homolog) | SID315464578 | -0.65 | inactive |
| KPNA4 (karyopherin subunit alpha 4) | SID315449678 | -0.99 | inactive |
| KPNA4 (karyopherin subunit alpha 4) | SID315449678 | 4.69 | active |
| KPNA4 (karyopherin subunit alpha 4) | SID315449678 | 2.91 | active |
| KPNA4 (karyopherin subunit alpha 4) | SID315449678 | 1.54 | inactive |
| PNLIPRP3 (pancreatic lipase related protein 3) | SID315461469 | -0.5 | inactive |
| PNLIPRP3 (pancreatic lipase related protein 3) | SID315461469 | -0.18 | inactive |
| PNLIPRP3 (pancreatic lipase related protein 3) | SID315461469 | -0.33 | inactive |
| PNLIPRP3 (pancreatic lipase related protein 3) | SID315461469 | -1.87 | active |
| MOB3B (MOB kinase activator 3B) | SID315459483 | 0.55 | inactive |
| MOB3B (MOB kinase activator 3B) | SID315459483 | 0.3 | inactive |
| MOB3B (MOB kinase activator 3B) | SID315459483 | 1.19 | inactive |
| MOB3B (MOB kinase activator 3B) | SID315459483 | -0.26 | inactive |
| MBD3L1 (methyl-CpG binding domain protein 3 like 1) | SID315460719 | 1.03 | inactive |
| MBD3L1 (methyl-CpG binding domain protein 3 like 1) | SID315460719 | 0.42 | inactive |
| MBD3L1 (methyl-CpG binding domain protein 3 like 1) | SID315460719 | 0.01 | inactive |
| B3GLCT (beta 3-glucosyltransferase) | SID315462235 | -1.71 | active |
| B3GLCT (beta 3-glucosyltransferase) | SID315462235 | -1.69 | active |
| B3GLCT (beta 3-glucosyltransferase) | SID315462235 | -1.8 | active |
| B3GLCT (beta 3-glucosyltransferase) | SID315462235 | -1.89 | active |
| NNT (nicotinamide nucleotide transhydrogenase) | SID315455306 | 1.09 | inactive |
| NNT (nicotinamide nucleotide transhydrogenase) | SID315455306 | 0.08 | inactive |
| NNT (nicotinamide nucleotide transhydrogenase) | SID315455306 | 0.26 | inactive |
| NNT (nicotinamide nucleotide transhydrogenase) | SID315455306 | 1.32 | inactive |
| SRC (SRC proto-oncogene, non-receptor tyrosine kinase) | SID315451625 | 0.37 | inactive |
| SRC (SRC proto-oncogene, non-receptor tyrosine kinase) | SID315451625 | 0.81 | inactive |
| SRC (SRC proto-oncogene, non-receptor tyrosine kinase) | SID315451625 | 0.53 | inactive |
| SRC (SRC proto-oncogene, non-receptor tyrosine kinase) | SID315451625 | -0.25 | inactive |
| CD2BP2 (CD2 cytoplasmic tail binding protein 2) | SID315454073 | -0.48 | inactive |
| CD2BP2 (CD2 cytoplasmic tail binding protein 2) | SID315454073 | -1.22 | inactive |
| CD2BP2 (CD2 cytoplasmic tail binding protein 2) | SID315454073 | -1.04 | inactive |
| CD2BP2 (CD2 cytoplasmic tail binding protein 2) | SID315454073 | -0.47 | inactive |
| OR13C3 (olfactory receptor family 13 subfamily C member 3) | SID315462053 | 0.34 | inactive |
| OR13C3 (olfactory receptor family 13 subfamily C member 3) | SID315462053 | 0.35 | inactive |
| OR13C3 (olfactory receptor family 13 subfamily C member 3) | SID315462053 | 1.04 | inactive |
| OR13C3 (olfactory receptor family 13 subfamily C member 3) | SID315462053 | 0.51 | inactive |
| WWOX (WW domain containing oxidoreductase) | SID315456874 | 0.52 | inactive |
| WWOX (WW domain containing oxidoreductase) | SID315456874 | 2.05 | inactive |
| WWOX (WW domain containing oxidoreductase) | SID315456874 | 0.51 | inactive |
| WWOX (WW domain containing oxidoreductase) | SID315456874 | 1.18 | inactive |
| RBM42 (RNA binding motif protein 42) | SID315459243 | -0.72 | inactive |
| RBM42 (RNA binding motif protein 42) | SID315459243 | -1.35 | inactive |
| RBM42 (RNA binding motif protein 42) | SID315459243 | -0.98 | inactive |
| RBM42 (RNA binding motif protein 42) | SID315459243 | -1.13 | inactive |

Records listed so far whose target name starts with E or e (4):
| target | PubChem SID | TNF reporter robust z-score | outcome |
| --- | --- | --- | --- |
| EFHC1 (EF-hand domain containing 1) | SID315461219 | -0.81 | inactive |
| EFHC1 (EF-hand domain containing 1) | SID315461219 | -1.1 | inactive |
| EFHC1 (EF-hand domain containing 1) | SID315461219 | -1.02 | inactive |
| EFHC1 (EF-hand domain containing 1) | SID315461219 | -0.08 | inactive |
